Data published in article doi:10.1101/264788.

The chains behind the UniProt entries cited, without tags or fusion partners. Residues count along the entry.
UniProt P02545, residues 1-646: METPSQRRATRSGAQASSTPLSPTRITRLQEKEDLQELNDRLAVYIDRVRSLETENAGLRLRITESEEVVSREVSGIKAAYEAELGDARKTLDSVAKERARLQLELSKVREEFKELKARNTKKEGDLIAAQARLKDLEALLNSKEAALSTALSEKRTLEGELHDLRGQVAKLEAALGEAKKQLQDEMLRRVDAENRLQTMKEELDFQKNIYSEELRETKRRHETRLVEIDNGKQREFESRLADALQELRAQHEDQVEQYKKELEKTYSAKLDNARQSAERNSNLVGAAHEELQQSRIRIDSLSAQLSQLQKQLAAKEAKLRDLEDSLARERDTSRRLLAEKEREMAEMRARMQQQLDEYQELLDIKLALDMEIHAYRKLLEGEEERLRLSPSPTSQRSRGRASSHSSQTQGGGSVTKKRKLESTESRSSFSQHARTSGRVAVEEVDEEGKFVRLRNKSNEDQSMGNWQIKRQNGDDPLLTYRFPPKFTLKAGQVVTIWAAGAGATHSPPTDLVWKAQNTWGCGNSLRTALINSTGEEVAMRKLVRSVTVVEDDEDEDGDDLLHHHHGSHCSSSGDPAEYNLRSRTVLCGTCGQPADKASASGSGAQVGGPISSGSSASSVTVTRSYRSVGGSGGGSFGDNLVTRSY
UniProt Q96HA1: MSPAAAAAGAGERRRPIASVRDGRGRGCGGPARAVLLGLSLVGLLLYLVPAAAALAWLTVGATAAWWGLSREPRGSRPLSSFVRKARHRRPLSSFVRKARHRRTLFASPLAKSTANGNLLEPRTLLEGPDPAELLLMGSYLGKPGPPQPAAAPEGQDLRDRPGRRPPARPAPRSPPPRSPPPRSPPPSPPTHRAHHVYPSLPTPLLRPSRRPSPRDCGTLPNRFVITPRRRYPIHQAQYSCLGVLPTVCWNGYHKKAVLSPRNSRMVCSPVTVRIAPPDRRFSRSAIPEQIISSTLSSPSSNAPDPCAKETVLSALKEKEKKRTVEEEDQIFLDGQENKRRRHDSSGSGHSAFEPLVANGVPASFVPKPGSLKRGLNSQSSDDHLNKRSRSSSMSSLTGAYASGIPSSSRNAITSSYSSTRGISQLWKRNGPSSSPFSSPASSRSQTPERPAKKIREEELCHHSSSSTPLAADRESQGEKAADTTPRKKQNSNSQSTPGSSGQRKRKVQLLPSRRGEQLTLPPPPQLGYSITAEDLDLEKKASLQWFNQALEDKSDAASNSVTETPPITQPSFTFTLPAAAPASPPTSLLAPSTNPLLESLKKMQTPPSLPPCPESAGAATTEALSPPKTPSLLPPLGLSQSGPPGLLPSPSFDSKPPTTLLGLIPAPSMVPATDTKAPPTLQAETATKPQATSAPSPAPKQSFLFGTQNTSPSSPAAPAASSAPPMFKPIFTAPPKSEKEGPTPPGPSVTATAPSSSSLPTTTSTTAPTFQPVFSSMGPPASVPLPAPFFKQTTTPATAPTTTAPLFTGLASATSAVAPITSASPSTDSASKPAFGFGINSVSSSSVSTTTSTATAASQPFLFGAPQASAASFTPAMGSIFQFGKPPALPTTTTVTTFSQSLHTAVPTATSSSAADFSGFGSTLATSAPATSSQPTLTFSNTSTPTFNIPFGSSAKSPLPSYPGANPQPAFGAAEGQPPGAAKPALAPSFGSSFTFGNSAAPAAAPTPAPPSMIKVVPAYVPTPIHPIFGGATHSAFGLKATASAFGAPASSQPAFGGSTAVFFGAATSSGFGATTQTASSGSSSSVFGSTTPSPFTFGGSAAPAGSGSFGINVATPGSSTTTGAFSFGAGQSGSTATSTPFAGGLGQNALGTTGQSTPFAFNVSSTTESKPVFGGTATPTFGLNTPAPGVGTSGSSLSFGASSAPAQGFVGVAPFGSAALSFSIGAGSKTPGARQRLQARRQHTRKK
UniProt Q14974: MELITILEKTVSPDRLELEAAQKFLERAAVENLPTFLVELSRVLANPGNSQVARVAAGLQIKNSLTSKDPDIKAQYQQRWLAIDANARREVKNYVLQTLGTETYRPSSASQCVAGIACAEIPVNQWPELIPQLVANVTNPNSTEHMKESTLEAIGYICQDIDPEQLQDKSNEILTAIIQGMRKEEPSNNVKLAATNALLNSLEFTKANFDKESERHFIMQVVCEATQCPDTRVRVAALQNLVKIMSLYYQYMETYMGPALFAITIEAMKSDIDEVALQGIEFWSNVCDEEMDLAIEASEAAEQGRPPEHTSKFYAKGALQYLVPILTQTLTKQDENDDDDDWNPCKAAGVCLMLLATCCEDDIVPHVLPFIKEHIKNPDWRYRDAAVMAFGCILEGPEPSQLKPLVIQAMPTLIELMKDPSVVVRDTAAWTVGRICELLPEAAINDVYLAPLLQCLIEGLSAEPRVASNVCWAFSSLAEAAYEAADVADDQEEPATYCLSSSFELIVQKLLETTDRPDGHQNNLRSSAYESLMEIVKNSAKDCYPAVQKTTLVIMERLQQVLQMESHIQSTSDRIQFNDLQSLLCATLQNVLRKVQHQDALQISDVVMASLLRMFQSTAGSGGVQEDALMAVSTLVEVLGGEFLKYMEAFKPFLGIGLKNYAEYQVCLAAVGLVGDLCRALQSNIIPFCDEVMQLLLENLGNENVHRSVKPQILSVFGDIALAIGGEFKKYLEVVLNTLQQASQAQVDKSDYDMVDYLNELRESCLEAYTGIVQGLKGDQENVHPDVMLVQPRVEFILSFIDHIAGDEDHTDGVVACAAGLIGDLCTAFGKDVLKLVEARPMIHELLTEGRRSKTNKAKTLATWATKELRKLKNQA
UniProt O00629: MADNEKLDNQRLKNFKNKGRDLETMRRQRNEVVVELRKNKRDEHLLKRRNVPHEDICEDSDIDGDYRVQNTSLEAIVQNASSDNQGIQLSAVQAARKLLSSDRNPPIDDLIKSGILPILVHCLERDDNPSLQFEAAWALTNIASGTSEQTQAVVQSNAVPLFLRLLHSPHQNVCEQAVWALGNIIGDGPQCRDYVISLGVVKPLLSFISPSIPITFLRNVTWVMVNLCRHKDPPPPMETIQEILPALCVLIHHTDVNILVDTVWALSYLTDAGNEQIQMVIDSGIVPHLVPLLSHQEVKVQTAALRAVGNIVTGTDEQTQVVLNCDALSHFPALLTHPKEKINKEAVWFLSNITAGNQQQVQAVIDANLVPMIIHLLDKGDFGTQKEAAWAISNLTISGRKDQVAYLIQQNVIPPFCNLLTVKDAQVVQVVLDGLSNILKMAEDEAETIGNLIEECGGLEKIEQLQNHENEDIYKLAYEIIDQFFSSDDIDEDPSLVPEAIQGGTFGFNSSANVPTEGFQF
UniProt O15131: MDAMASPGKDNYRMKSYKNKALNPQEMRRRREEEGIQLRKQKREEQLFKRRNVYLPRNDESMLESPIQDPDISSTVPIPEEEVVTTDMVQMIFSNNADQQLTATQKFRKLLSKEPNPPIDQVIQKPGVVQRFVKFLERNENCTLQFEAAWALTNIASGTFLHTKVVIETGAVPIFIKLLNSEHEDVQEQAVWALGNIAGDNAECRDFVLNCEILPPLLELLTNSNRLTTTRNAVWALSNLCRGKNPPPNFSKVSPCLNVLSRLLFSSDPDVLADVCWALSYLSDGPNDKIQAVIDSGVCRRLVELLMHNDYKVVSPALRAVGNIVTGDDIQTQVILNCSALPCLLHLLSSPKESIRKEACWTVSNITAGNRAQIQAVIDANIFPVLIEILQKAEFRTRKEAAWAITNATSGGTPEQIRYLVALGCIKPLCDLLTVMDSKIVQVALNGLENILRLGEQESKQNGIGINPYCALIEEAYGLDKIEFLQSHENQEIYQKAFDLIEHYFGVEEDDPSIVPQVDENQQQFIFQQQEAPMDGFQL
UniProt Q8WYP5: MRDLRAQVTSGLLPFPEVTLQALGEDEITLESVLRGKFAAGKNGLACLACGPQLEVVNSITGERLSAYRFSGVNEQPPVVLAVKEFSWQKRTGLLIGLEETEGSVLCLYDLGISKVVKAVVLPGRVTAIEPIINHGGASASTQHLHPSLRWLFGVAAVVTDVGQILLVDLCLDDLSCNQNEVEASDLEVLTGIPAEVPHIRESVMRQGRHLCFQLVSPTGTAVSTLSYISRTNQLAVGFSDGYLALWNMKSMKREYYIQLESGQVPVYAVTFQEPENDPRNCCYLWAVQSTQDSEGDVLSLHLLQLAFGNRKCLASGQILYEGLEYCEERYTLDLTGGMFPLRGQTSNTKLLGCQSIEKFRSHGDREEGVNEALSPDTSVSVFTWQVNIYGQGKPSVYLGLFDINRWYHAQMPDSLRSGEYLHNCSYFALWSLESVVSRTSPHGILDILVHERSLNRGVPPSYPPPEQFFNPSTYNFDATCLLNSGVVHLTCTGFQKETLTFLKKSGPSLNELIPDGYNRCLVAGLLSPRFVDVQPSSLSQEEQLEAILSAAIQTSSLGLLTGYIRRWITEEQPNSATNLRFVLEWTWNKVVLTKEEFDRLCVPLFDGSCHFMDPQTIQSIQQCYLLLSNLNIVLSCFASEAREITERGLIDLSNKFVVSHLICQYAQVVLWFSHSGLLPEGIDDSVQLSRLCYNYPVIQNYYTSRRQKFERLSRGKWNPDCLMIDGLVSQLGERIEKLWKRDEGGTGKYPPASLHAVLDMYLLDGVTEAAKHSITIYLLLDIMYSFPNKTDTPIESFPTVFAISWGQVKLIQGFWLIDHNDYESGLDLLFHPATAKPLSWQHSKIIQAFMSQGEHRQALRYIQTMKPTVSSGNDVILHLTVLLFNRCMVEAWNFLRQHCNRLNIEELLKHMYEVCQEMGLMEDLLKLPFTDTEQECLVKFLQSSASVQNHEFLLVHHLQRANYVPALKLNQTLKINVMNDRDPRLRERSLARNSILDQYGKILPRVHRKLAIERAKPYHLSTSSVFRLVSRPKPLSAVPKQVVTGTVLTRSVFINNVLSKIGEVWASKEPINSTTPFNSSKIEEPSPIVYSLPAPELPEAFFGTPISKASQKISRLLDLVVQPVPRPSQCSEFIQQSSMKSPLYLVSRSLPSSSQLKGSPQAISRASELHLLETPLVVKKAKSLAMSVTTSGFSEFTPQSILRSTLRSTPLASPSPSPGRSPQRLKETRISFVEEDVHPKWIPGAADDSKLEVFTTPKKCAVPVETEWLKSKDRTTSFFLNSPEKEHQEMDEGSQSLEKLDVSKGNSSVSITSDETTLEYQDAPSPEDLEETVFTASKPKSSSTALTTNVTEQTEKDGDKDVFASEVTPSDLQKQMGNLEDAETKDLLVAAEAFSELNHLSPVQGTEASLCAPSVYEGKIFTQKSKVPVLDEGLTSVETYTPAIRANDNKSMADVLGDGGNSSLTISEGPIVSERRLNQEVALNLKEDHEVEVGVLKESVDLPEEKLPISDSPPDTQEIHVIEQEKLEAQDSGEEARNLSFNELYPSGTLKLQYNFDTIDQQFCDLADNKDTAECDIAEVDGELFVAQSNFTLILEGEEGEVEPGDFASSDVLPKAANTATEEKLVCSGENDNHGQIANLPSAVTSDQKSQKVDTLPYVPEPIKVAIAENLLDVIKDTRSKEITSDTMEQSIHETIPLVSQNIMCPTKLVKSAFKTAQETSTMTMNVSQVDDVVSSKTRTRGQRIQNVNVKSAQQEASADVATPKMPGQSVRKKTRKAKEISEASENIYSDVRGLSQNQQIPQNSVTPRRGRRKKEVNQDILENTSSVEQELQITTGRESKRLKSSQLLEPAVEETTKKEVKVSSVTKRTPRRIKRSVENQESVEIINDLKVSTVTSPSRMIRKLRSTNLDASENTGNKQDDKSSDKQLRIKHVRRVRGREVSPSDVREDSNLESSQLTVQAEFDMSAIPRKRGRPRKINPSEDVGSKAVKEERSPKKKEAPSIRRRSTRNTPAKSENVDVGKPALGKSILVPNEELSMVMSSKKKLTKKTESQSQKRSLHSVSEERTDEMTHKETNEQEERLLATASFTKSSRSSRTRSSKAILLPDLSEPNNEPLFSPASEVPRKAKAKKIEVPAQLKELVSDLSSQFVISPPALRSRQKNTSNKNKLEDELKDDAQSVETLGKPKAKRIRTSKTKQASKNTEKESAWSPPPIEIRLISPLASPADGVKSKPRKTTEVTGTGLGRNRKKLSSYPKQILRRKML

B1: Nuclear pore complex protein Nup107 (protein, UniProt P57740 1-925)
chain: MDRSGFGEISSPVIREAEVTRTARKQSAQKRVLLQASQDENFGNTTPRNQVIPRTPSSFRQPFTPTSRSLLRQPDISCILGTGGKSPRLTQSSGFFGNLSMVTNLDDSNWAAAFSSQRSGLFTNTEPHSITEDVTISAVMLREDDPGEAASMSMFSDFLQSFLKHSSSTVFDLVEEYENICGSQVNILSKIVSRATPGLQKFSKTASMLWLLQQEMVTWRLLASLYRDRIQSALEEESVFAVTAVNASEKTVVEALFQRDSLVRQSQLVVDWLESIAKDEIGEFSDNIEFYAKSVYWENTLHTLKQRQLTSYVGSVRPLVTELDPDAPIRQKMPLDDLDREDEVRLLKYLFTLIRAGMTEEAQRLCKRCGQAWRAATLEGWKLYHDPNVNGGTELEPVEGNPYRRIWKISCWRMAEDELFNRYERAIYAALSGNLKQLLPVCDTWEDTVWAYFRVMVDSLVEQEIQTSVATLDETEELPREYLGANWTLEKVFEELQATDKKRVLEENQEHYHIVQKFLILGDIDGLMDEFSKWLSKSRNNLPGHLLRFMTHLILFFRTLGLQTKEEVSIEVLKTYIQLLIREKHTNLIAFYTCHLPQDLAVAQYALFLESVTEFEQRHHCLELAKEADLDVATITKTVVENIRKKDNGEFSHHDLAPALDTGTTEEDRLKIDVIDWLVFDPAQRAEALKQGNAIMRKFLASKKHEAAKEVFVKIPQDSIAEIYNQCEEQGMESPLPAEDDNAIREHLCIRAYLEAHETFNEWFKHMNSVPQKPALIPQPTFTEKVAHEHKEKKYEMDFGIWKGHLDALTADVKEKMYNVLLFVDGGWMVDVREDAKEDHERTHQMVLLRKLCLPMLCFLLHTILHSTGQYQECLQLADMVSSERHKLYLVFSKEELRKLLQKLRESSLMLLDQGLDPLGYEIQL
B2: Nuclear pore complex protein Nup133 (protein, UniProt Q8WUM0 1-1156)
chain: MFPAAPSPRTPGTGSRRGPLAGLGPGSTPRTASRKGLPLGSAVSSPVLFSPVGRRSSLSSRGTPTRMFPHHSITESVNYDVKTFGSSLPVKVMEALTLAEVDDQLTINIDEGGWACLVCKEKLIIWKIALSPITKLSVCKELQLPPSDFHWSADLVALSYSSPSGEAHSTQAVAVMVATREGSIRYWPSLAGEDTYTEAFVDSGGDKTYSFLTAVQGGSFILSSSGSQLIRLIPESSGKIHQHILPQGQGMLSGIGRKVSSLFGILSPSSDLTLSSVLWDRERSSFYSLTSSNISKWELDDSSEKHAYSWDINRALKENITDAIWGSESNYEAIKEGVNIRYLDLKQNCDGLVILAAAWHSADNPCLIYYSLITIEDNGCQMSDAVTVEVTQYNPPFQSEDLILCQLTVPNFSNQTAYLYNESAVYVCSTGTGKFSLPQEKIVFNAQGDSVLGAGACGGVPIIFSRNSGLVSITSRENVSILAEDLEGSLASSVAGPNSESMIFETTTKNETIAQEDKIKLLKAAFLQYCRKDLGHAQMVVDELFSSHSDLDSDSELDRAVTQISVDLMDDYPASDPRWAESVPEEAPGFSNTSLIILHQLEDKMKAHSFLMDFIHQVGLFGRLGSFPVRGTPMATRLLLCEHAEKLSAAIVLKNHHSRLSDLVNTAILIALNKREYEIPSNLTPADVFFREVSQVDTICECLLEHEEQVLRDAPMDSIEWAEVVINVNNILKDMLQAASHYRQNRNSLYRREESLEKEPEYVPWTATSGPGGIRTVIIRQHEIVLKVAYPQADSNLRNIVTEQLVALIDCFLDGYVSQLKSVDKSSNRERYDNLEMEYLQKRSDLLSPLLSLGQYLWAASLAEKYCDFDILVQMCEQTDNQSRLQRYMTQFADQNFSDFLFRWYLEKGKRGKLLSQPISQHGQLANFLQAHEHLSWLHEINSQELEKAHATLLGLANMETRYFAKKKTLLGLSKLAALASDFSEDMLQEKIEEMAEQERFLLHQETLPEQLLAEKQLNLSAMPVLTAPQLIGLYICEENRRANEYDFKKALDLLEYIDEEEDININDLKLEILCKALQRDNWSSSDGKDDPIEVSKDSIFVKILQKLLKDGIQLSEYLPEVKDLLQADQLGSLKSNPYFEFVLKANYEYYVQGQI
B3: Nuclear pore complex protein Nup155 (protein, UniProt O75694 1-1391)
chain: MPSSLLGAAMPASTSAAALQEALENAGRLIDRQLQEDRMYPDLSELLMVSAPNNPTVSGMSDMDYPLQGPGLLSVPNLPEISSIRRVPLPPELVEQFGHMQCNCMMGVFPPISRAWLTIDSDIFMWNYEDGGDLAYFDGLSETILAVGLVKPKAGIFQPHVRHLLVLATPVDIVILGLSYANLQTGSGVLNDSLSGGMQLLPDPLYSLPTDNTYLLTITSTDNGRIFLAGKDGCLYEVAYQAEAGWFSQRCRKINHSKSSLSFLVPSLLQFTFSEDDPILQIAIDNSRNILYTRSEKGVIQVYDLGQDGQGMSRVASVSQNAIVSAAGNIARTIDRSVFKPIVQIAVIENSESLDCQLLAVTHAGVRLYFSTCPFRQPLARPNTLTLVHVRLPPGFSASSTVEKPSKVHRALYSKGILLMAASENEDNDILWCVNHDTFPFQKPMMETQMTAGVDGHSWALSAIDELKVDKIITPLNKDHIPITDSPVVVQQHMLPPKKFVLLSAQGSLMFHKLRPVDQLRHLLVSNVGGDGEEIERFFKLHQEDQACATCLILACSTAACDREVSAWATRAFFRYGGEAQMRFPTTLPPPSNVGPILGSPVYSSSPVPSGSPYPNPSFLGTPSHGIQPPAMSTPVCALGNPATQATNMSCVTGPEIVYSGKHNGICIYFSRIMGNIWDASLVVERIFKSGNREITAIESSVPCQLLESVLQELKGLQEFLDRNSQFAGGPLGNPNTTAKVQQRLIGFMRPENGNPQQMQQELQRKFHEAQLSEKISLQAIQQLVRKSYQALALWKLLCEHQFTIIVAELQKELQEQLKITTFKDLVIRDKELTGALIASLINCYIRDNAAVDGISLHLQDICPLLYSTDDAICSKANELLQRSRQVQNKTEKERMLRESLKEYQKISNQVDLSNVCAQYRQVRFYEGVVELSLTAAEKKDPQGLGLHFYKHGEPEEDIVGLQAFQERLNSYKCITDTLQELVNQSKAAPQSPSVPKKPGPPVLSSDPNMLSNEEAGHHFEQMLKLSQRSKDELFSIALYNWLIQVDLADKLLQVASPFLEPHLVRMAKVDQNRVRYMDLLWRYYEKNRSFSNAARVLSRLADMHSTEISLQQRLEYIARAILSAKSSTAISSIAADGEFLHELEEKMEVARIQLQIQETLQRQYSHHSSVQDAVSQLDSELMDITKLYGEFADPFKLAECKLAIIHCAGYSDPILVQTLWQDIIEKELSDSVTLSSSDRMHALSLKIVLLGKIYAGTPRFFPLDFIVQFLEQQVCTLNWDVGFVIQTMNEIGVPLPRLLEVYDQLFKSRDPFWNRMKKPLHLLDCIHVLLIRYVENPSQVLNCERRRFTNLCLDAVCGYLVELQSMSSSVAVQAITGNFKSLQAKLERLH
B4: Nuclear pore complex protein Nup160 (protein, UniProt Q12769 1-1436)
chain: MLHLSAAPPAPPPEVTATARPCLCSVGRRGDGGKMAAAGALERSFVELSGAERERPRHFREFTVCSIGTANAVAGAVKYSESAGGFYYVESGKLFSVTRNRFIHWKTSGDTLELMEESLDINLLNNAIRLKFQNCSVLPGGVYVSETQNRVIILMLTNQTVHRLLLPHPSRMYRSELVVDSQMQSIFTDIGKVDFTDPCNYQLIPAVPGISPNSTASTAWLSSDGEALFALPCASGGIFVLKLPPYDIPGMVSVVELKQSSVMQRLLTGWMPTAIRGDQSPSDRPLSLAVHCVEHDAFIFALCQDHKLRMWSYKEQMCLMVADMLEYVPVKKDLRLTAGTGHKLRLAYSPTMGLYLGIYMHAPKRGQFCIFQLVSTESNRYSLDHISSLFTSQETLIDFALTSTDIWALWHDAENQTVVKYINFEHNVAGQWNPVFMQPLPEEEIVIRDDQDPREMYLQSLFTPGQFTNEALCKALQIFCRGTERNLDLSWSELKKEVTLAVENELQGSVTEYEFSQEEFRNLQQEFWCKFYACCLQYQEALSHPLALHLNPHTNMVCLLKKGYLSFLIPSSLVDHLYLLPYENLLTEDETTISDDVDIARDVICLIKCLRLIEESVTVDMSVIMEMSCYNLQSPEKAAEQILEDMITIDVENVMEDICSKLQEIRNPIHAIGLLIREMDYETEVEMEKGFNPAQPLNIRMNLTQLYGSNTAGYIVCRGVHKIASTRFLICRDLLILQQLLMRLGDAVIWGTGQLFQAQQDLLHRTAPLLLSYYLIKWGSECLATDVPLDTLESNLQHLSVLELTDSGALMANRFVSSPQTIVELFFQEVARKHIISHLFSQPKAPLSQTGLNWPEMITAITSYLLQLLWPSNPGCLFLECLMGNCQYVQLQDYIQLLHPWCQVNVGSCRFMLGRCYLVTGEGQKALECFCQAASEVGKEEFLDRLIRSEDGEIVSTPRLQYYDKVLRLLDVIGLPELVIQLATSAITEAGDDWKSQATLRTCIFKHHLDLGHNSQAYEALTQIPDSSRQLDCLRQLVVVLCERSQLQDLVEFPYVNLHNEVVGIIESRARAVDLMTHNYYELLYAFHIYRHNYRKAGTVMFEYGMRLGREVRTLRGLEKQGNCYLAALNCLRLIRPEYAWIVQPVSGAVYDRPGASPKRNHDGECTAAPTNRQIEILELEDLEKECSLARIRLTLAQHDPSAVAVAGSSSAEEMVTLLVQAGLFDTAISLCQTFKLPLTPVFEGLAFKCIKLQFGGEAAQAEAWAWLAANQLSSVITTKESSATDEAWRLLSTYLERYKVQNNLYHHCVINKLLSHGVPLPNWLINSYKKVDAAELLRLYLNYDLLEEAVDLVSEYVDAVLGKGHQYFGIEFPLSATAPMVWLPYSSIDQLLQALGENSANSHNIALSQKILDKLEDYQQKVDKATRDLLYRRTL
B5: NUP85 (protein, UniProt Q9BW27 1-656)
chain: MEELDGEPTVTLIPGVNSKKNQMYFDWGPGEMLVCETSFNKKEKSEMVPSCPFIYIIRKDVDVYSQILRKLFNESHGIFLGLQRIDEELTGKSRKSQLVRVSKNYRSVIRACMEEMHQVAIAAKDPANGRQFSSQVSILSAMELIWNLCEILFIEVAPAGPLLLHLLDWVRLHVCEVDSLSADVLGSENPSKHDSFWNLVTILVLQGRLDEARQMLSKEADASPASAGICRIMGDLMRTMPILSPGNTQTLTELELKWQHWHEECERYLQDSTFATSPHLESLLKIMLGDEAALLEQKELLSNWYHFLVTRLLYSNPTVKPIDLHYYAQSSLDLFLGGESSPEPLDNILLAAFEFDIHQVIKECSIALSNWWFVAHLTDLLDHCKLLQSHNLYFGSNMREFLLLEYASGLFAHPSLWQLGVDYFDYCPELGRVSLELHIERIPLNTEQKALKVLRICEQRQMTEQVRSICKILAMKAVRNNRLGSALSWSIRAKDAAFATLVSDRFLRDYCERGCFSDLDLIDNLGPAMMLSDRLTFLGKYREFHRMYGEKRFADAASLLLSLMTSRIAPRSFWMTLLTDALPLLEQKQVIFSAEQTYELMRCLEDLTSRRPVHGESDTEQLQDDDIETTKVEMLRLSLARNLARAIIREGSLEGS

These molecules were tested against Prelamin-A/C, MAC-tagged (human) (UniProt P02545) (assay: proximity labelling).

binding, binds:
nuclear envelope pore membrane protein POM 121 (from UniProt Q96HA1 1-1249)
NUP98 (from UniProt P52948 1-880)
importin subunit alpha IMA4 (from UniProt O00505 1-521)
nuclear envelope pore membrane protein POM 121C (from UniProt A8CG34 1-1229)
importin subunit beta-1 (from UniProt Q14974 1-876) (other; other documents disagree on this pair)
importin subunit alpha IMA3 (from UniProt O00629 1-521)
importin subunit alpha IMA6 (from UniProt O15131 1-539)
ELYS (from UniProt Q8WYP5 1-2266)
Nuclear pore complex protein Nup153 (from UniProt P49790 1-1475)
B1
B2
B3
B4
B5

These are yes or no findings as the source states them, for the method shown. In cells and extracts the contact can be indirect. These calls come from enrichment with a bait or labelling near it, and not all partners need be listed.
